{"source": "patent US4575560A", "about": "“Insecticidal diaminoguanidine hydrazone compounds” (American Cyanamid Company, priority 1985, dated 1986)", "system": "Southern Armyworm", "assay": "Southern armyworm test, third-instar larvae on treated Sieva lima bean leaves", "format": "in vivo, Spodoptera eridania (Cramer)", "conditions": "1000 ppm", "method": "Test formulations and procedures used for evaluation are as follows:\nA. 100 mg of the test material is weighed, placed in a funnel over a 113 g narrow-mouth bottle, rinsed into the bottle with a 35 mL scoop of acetone, followed by a 35 mL scoop of water and another 35 mL scoop of acetone to yield 1000 ppm in 65% acetone. If the material is not soluble, it is broken up with a glass rod and used as a suspension.\nB. This stock solution (\"A\") is used to make 300 ppm solutions or suspensions by pipetting 30 mL of \"A\" into a bottle containing 70 mL of 50% acetone to yield 300 ppm. Further dilutions in 50% acetone are made as required.\nC. Tests requiring 10 ppm acetone solutions: 1 mL of \"A\" is pipetted into 99 mL of acetone to yield 10 ppm. Additional dilutions are made using 50% acetone as required.\nSouthern Armyworm--Spodoptera eridania (Cramer)\nA Sieva lima bean plant with just the primary leaves expanded to 1.91 cm is dipped for three seconds with agitation in the \"A\" solution of 1000 ppm and set in the hood to dry. Following this, one leaf is placed in a 9 cm petri dish which has a moist filter paper in the bottom and 10 third-instar armyworm larvae about 1 cm long. This dish is covered and held at 80° F., and 50% r.h. After two days, mortality counts and estimates of the amount of feeding are made. […]", "note": "“And” between values parts separate entries of the source, which are not always exact repeats. Equal entries are not always repeated. Structures can show the parent of a compound that is named as a salt. At least one read-out could not be matched to a standard name with certainty."}
{"molecule": "N=C(NN=Cc1ccc(Cl)cc1)NN=Cc1ccc(Cl)cc1", "note": "[Cl / HCl]", "values": [{"measurement": "Mortality Rating Southern Armyworm", "value": "8 (86-99%) and 9 (100%)"}]}
